Consider 39 targets from the supplement of paper PMC10849652.

Sequences of proteins named here, by UniProt entry; tags and fusion partners are left off. A change or cut given only in a name is not applied to a line headed by its entry.
UniProt Q9UHW9: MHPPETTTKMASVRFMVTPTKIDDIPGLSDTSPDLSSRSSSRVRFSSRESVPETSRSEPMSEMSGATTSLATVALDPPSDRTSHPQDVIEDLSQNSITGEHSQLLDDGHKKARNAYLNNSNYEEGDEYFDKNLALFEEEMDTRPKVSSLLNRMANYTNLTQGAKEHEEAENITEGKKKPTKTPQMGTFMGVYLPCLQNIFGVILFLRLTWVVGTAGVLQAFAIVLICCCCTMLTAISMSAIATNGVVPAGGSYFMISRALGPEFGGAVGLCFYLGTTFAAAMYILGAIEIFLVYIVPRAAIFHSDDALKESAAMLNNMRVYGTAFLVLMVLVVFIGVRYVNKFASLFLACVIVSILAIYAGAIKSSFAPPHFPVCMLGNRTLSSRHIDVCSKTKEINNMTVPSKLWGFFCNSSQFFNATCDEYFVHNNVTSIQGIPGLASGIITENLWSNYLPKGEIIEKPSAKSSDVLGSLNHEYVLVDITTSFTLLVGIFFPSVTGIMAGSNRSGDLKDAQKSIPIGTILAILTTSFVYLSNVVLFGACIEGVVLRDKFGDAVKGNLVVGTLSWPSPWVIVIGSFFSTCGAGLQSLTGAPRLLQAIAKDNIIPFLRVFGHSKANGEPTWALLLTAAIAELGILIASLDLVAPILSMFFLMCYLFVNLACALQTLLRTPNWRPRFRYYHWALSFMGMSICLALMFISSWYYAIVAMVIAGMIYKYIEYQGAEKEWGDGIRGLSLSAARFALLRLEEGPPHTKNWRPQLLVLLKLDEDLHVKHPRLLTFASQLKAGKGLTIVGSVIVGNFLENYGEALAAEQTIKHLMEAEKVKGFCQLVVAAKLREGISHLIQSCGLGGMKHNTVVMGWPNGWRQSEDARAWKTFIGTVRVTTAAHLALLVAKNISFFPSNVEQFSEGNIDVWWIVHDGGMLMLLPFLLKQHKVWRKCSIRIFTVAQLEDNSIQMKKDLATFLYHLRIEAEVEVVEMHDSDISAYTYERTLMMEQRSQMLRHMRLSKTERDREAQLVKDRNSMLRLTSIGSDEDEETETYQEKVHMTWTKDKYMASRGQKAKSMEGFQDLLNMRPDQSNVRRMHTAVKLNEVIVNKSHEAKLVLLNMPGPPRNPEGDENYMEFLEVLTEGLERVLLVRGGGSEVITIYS
UniProt Q92504: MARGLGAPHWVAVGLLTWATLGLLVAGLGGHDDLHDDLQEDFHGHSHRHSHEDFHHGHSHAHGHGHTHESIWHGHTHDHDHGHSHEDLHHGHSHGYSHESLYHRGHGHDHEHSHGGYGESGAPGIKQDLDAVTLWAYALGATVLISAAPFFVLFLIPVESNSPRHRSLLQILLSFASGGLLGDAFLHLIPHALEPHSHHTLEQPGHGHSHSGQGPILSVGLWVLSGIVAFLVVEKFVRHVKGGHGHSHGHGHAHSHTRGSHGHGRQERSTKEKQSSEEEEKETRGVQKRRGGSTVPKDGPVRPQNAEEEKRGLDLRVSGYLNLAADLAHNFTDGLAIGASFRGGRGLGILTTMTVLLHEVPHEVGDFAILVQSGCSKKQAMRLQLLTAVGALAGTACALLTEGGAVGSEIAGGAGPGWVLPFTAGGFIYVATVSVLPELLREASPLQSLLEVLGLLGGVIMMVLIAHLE
UniProt O43772: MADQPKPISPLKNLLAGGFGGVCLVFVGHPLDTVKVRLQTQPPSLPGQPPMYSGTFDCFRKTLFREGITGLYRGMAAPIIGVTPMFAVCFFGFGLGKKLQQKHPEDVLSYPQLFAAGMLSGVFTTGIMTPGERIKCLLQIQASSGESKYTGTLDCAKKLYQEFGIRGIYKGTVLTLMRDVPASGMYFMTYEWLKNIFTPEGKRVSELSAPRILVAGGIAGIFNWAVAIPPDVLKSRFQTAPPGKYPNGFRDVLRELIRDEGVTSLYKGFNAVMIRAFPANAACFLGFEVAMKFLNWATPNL
UniProt Q08357: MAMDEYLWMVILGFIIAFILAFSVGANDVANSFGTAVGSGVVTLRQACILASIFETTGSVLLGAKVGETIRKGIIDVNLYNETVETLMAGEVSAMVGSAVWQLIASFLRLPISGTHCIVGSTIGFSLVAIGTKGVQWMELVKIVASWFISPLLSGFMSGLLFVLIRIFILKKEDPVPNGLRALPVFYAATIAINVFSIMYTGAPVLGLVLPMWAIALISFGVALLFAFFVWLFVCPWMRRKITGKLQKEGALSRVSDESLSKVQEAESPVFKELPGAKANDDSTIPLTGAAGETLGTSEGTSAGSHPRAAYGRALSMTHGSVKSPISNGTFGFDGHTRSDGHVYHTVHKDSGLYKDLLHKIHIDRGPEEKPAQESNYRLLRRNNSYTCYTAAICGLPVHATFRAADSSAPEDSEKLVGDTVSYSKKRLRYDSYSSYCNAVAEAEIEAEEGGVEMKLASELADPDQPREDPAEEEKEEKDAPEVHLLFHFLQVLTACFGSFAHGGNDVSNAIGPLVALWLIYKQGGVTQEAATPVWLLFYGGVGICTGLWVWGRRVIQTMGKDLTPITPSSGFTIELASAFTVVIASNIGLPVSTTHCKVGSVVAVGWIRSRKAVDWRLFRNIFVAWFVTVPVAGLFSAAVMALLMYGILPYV
UniProt Q8TAD4: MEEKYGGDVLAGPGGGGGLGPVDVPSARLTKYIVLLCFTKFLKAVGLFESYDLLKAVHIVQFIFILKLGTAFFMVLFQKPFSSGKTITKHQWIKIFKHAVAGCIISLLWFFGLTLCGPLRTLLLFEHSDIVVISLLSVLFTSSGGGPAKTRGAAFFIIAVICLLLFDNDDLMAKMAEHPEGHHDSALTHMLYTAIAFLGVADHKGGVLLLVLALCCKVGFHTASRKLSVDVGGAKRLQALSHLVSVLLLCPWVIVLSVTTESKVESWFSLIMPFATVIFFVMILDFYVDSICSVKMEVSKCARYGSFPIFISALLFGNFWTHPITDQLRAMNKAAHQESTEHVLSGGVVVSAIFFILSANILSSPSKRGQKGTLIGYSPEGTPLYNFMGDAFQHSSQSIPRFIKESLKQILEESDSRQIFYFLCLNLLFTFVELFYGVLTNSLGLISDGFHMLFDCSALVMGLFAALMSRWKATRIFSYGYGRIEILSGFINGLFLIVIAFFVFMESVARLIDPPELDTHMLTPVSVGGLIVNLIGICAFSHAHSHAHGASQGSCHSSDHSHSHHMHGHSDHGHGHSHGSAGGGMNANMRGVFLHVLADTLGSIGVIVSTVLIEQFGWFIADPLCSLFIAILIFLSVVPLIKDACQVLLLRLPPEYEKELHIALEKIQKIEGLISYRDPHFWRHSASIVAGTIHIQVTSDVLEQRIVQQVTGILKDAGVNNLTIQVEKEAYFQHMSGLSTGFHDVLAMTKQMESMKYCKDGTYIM
UniProt Q00325: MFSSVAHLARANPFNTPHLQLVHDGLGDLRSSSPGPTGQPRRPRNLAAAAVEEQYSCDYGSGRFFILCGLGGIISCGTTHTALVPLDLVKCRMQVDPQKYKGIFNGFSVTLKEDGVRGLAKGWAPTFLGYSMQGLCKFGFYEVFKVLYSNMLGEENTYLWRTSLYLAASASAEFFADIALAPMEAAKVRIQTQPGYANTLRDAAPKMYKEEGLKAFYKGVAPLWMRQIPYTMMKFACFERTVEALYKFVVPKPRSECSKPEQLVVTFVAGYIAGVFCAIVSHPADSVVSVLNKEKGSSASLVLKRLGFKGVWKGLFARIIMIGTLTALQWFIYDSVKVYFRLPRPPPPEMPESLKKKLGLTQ
UniProt P11169: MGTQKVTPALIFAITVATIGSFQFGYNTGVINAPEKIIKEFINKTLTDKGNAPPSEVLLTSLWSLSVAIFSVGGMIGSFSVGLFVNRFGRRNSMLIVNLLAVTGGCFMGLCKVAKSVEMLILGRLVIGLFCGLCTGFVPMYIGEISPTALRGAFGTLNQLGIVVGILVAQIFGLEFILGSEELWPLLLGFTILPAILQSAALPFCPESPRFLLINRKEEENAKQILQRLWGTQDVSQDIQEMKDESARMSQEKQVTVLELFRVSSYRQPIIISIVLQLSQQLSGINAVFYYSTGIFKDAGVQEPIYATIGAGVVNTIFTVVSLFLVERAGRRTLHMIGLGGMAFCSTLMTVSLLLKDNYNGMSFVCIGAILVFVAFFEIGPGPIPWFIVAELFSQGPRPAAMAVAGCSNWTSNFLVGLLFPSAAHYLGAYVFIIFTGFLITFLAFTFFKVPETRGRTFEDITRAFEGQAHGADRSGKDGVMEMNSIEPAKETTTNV
UniProt P55011: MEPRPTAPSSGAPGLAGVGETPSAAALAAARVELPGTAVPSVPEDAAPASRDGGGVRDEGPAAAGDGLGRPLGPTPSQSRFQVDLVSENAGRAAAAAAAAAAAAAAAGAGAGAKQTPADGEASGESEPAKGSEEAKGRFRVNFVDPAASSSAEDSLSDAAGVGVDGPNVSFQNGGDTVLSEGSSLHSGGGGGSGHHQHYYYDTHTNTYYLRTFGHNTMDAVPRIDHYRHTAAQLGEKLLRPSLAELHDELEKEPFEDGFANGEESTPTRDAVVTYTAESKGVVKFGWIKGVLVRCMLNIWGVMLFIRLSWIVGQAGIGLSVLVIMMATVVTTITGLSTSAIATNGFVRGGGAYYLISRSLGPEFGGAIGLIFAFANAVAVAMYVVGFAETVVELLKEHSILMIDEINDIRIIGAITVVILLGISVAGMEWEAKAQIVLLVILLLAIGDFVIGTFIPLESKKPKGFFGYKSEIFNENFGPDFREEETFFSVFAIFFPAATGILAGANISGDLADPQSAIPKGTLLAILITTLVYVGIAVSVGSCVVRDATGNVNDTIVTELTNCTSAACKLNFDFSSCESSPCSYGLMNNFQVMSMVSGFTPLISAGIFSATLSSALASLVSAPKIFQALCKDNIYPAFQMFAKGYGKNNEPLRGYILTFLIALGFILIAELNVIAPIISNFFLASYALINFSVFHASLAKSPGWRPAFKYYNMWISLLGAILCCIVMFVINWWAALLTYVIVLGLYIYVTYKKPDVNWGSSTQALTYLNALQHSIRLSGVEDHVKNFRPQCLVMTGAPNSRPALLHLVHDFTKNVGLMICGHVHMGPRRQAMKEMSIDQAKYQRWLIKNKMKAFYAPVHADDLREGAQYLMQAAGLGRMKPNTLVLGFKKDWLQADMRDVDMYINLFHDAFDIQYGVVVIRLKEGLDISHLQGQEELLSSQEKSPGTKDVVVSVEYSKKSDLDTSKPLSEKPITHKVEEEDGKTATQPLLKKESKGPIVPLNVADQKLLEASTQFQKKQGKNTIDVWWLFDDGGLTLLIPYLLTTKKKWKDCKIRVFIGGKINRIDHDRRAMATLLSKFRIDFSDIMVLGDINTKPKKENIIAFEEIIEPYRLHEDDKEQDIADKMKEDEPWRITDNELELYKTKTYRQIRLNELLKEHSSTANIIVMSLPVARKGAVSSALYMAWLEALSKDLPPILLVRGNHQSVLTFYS
UniProt P53794: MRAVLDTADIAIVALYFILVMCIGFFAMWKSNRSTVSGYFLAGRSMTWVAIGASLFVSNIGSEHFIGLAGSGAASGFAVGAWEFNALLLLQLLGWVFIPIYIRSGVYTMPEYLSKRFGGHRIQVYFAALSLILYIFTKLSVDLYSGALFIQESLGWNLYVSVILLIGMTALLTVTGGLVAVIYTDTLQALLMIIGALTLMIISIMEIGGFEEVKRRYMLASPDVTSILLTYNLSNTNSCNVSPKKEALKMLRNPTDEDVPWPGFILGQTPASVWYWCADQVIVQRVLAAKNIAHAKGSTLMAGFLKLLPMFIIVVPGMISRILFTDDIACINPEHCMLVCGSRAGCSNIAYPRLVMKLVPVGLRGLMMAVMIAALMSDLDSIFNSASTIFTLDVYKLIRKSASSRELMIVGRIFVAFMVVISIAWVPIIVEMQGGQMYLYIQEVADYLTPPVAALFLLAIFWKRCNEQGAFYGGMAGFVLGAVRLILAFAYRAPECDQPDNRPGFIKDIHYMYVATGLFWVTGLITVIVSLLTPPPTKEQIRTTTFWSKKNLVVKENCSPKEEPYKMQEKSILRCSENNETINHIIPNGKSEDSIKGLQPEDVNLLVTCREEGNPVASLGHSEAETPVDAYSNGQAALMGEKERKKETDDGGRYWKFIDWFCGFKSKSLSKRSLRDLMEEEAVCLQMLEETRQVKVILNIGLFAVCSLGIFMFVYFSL
UniProt Q9Y619: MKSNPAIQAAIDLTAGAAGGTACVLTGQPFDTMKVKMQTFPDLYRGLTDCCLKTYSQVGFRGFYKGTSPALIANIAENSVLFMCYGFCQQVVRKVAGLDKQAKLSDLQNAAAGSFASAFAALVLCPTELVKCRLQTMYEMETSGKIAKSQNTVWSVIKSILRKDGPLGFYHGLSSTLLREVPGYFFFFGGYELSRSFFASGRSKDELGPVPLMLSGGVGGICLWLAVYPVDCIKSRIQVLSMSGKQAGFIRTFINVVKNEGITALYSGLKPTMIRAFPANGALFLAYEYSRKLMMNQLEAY

This is one part of the list.

Compound in the first assay: CC(C)(C)Cn1c(N)nc2ccc(-c3[nH]c(C(C)(C)C)nc3-c3ccc(F)cc3)nc21 [ralimetinib]
Nature of the assay: log2 fold change, soluble protein after heating vs DMSO (PISA); higher = thermal stabilisation; K562 cells, 10 uM, 30 min; active = over 0.2 and 3.5 SD of the protein, either way, in both replicates (recomputed). Put shortly: (§1)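 K562 cells at 2×10^6 cells/mL were given 10 μM compound for 30 min. Aliquots then went through 3 min of heating across 48°C-58°C, were pooled, and were extracted in PBS with 0.5% NP-40 at 4°C, and the supernatant after 21,000xg for 90 min was quantified by TMTpro 16plex LC-MS/MS with channel sums equalised. Thermal stability relative to control samples, from duplicates, is given as log2 fold change.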
For SLC25A33 (UniProt Q9BSK2), the log2 fold change is inactive: -0.042.
In the case of SLC4A7 isoform 7 (UniProt Q9Y6M7), the log2 fold change was inactive: 0.034.
The same measure, in the same setting: in the case of SLC25A12 (UniProt O75746) it was inactive: -0.06; in that of SLC12A6 isoform 2 (UniProt Q9UHW9), inactive: 0.004; in that of SLC39A7 (UniProt Q92504), inactive: -0.018.
As for SLC43A3 isoform 2 (UniProt Q8NBI5), the log2 fold change was inactive: -0.108.
For the target SLC37A4 isoform 2 (UniProt O43826), the log2 fold change is inactive: -0.085.
As to SLC25A11 (UniProt Q02978), the log2 fold change is inactive: -0.053.
Still for that read-out and setting: in the case of SLC25A21 (UniProt Q9BQT8) it was inactive: -0.136; in that of SLC25A10 isoform 2 (UniProt Q9UBX3), inactive: 0.03.
The same measure, in the same setting: in the case of SLC25A19 (UniProt Q9HC21) it was inactive: -0.032; in that of SLC2A1 (UniProt P11166), inactive: -0.06.
On the same count and under the same terms, in the case of SLC29A1 isoform 2 (UniProt Q99808) it was inactive: -0.048; in that of SLC30A9 (UniProt Q6PML9), inactive: -0.058; in that of SLC25A20 (UniProt O43772), inactive: -0.107.
On to SLC39A10 (UniProt Q9ULF5), for which the log2 fold change is inactive: 0.034.
For SLC20A2 (UniProt Q08357), the log2 fold change was inactive: -0.09.
Take SLC1A4 (UniProt P43007): the log2 fold change is inactive: 0.045.
Still for that read-out and setting: in the case of SLC30A5 (UniProt Q8TAD4) it was inactive: -0.046; in that of SLC25A3 isoform 2 (UniProt Q00325), inactive: -0.03.
Turning to SLC7A5 (UniProt Q01650), the log2 fold change was inactive: -0.148.
The same measure, in the same setting: the figure for SLC35B3 (UniProt Q9H1N7) is inactive: 0.119; for SLC7A1 (UniProt P30825) it is inactive: -0.002.
For the target SLC25A40 (UniProt Q8TBP6), the log2 fold change was inactive: -0.049.
In the case of SLC2A3 (UniProt P11169), the log2 fold change is inactive: -0.092.
The same measure, in the same setting: the figure for SLC26A6 (UniProt Q9BXS9) is inactive: -0.14; for SLC25A17 (UniProt O43808) it is inactive: -0.018.
Still for that read-out and setting: in the case of SLC25A32 (UniProt Q9H2D1) it was inactive: -0.073.
Turning to SLC12A9 (UniProt Q9BXP2), the log2 fold change is inactive: -0.106.
In the case of SLC1A5 (UniProt Q15758), the log2 fold change is inactive: 0.046.
As for SLC6A8 (UniProt P48029), the log2 fold change is inactive: 0.013.
In the case of SLC3A2 isoform 3 (UniProt P08195), the log2 fold change was inactive: 0.001.
Take SLC25A1 (UniProt P53007): the log2 fold change is inactive: 0.009.
Still for that read-out and setting: the figure for SLC20A1 (UniProt Q8WUM9) is inactive: -0.046; for SLC12A2 (UniProt P55011) it is inactive: -0.025; for SLC38A10 (UniProt Q9HBR0) it is inactive: -0.037.
Still for that read-out and setting: in the case of SLC5A3 (UniProt P53794) it was inactive: 0.034.
The same measure, in the same setting: in the case of SLC5A6 (UniProt Q9Y289) it was inactive: -0.063; in that of SLC25A15 (UniProt Q9Y619), inactive: -0.001.

Compound in a further assay: CC(C)(O)CC(=O)NCCn1ccc2ncnc(Nc3ccc(Oc4cccc(C(F)(F)F)c4)c(Cl)c3)c21
The description is as above. An outline of the steps: as §1
Regarding SLC25A33 (UniProt Q9BSK2), the log2 fold change is inactive: -0.044.
Still for that read-out and setting: in the case of SLC4A7 isoform 7 (UniProt Q9Y6M7) it was inactive: -0.009.
As for SLC25A12 (UniProt O75746), the log2 fold change is inactive: -0.003.
In the case of SLC12A6 isoform 2 (UniProt Q9UHW9), the log2 fold change was inactive: -0.018.
With SLC39A7 (UniProt Q92504), the log2 fold change was inactive: -0.023.
On to SLC43A3 isoform 2 (UniProt Q8NBI5), for which the log2 fold change is inactive: 0.006.
Same read-out and setting: the figure for SLC37A4 isoform 2 (UniProt O43826) is inactive: -0.024; for SLC25A11 (UniProt Q02978) it is inactive: 0.027; for SLC25A21 (UniProt Q9BQT8) it is inactive: 0.022.
On to SLC25A10 isoform 2 (UniProt Q9UBX3), for which the log2 fold change was inactive: 0.065.
For the target SLC25A19 (UniProt Q9HC21), the log2 fold change was inactive: 0.046.
Regarding SLC2A1 (UniProt P11166), the log2 fold change is inactive: 0.008.
The same measure, in the same setting: in the case of SLC29A1 isoform 2 (UniProt Q99808) it was inactive: 0.023; in that of SLC30A9 (UniProt Q6PML9), inactive: -0.051; in that of SLC25A20 (UniProt O43772), inactive: -0.009.
The same measure, in the same setting: in the case of SLC39A10 (UniProt Q9ULF5) it was inactive: 0.025; in that of SLC20A2 (UniProt Q08357), inactive: 0.028.
On the same count and under the same terms, the figure for SLC1A4 (UniProt P43007) is inactive: -0.055.
In the case of SLC30A5 (UniProt Q8TAD4), the log2 fold change is inactive: 0.013.
Still for that read-out and setting: in the case of SLC25A3 isoform 2 (UniProt Q00325) it was inactive: 0.058; in that of SLC7A5 (UniProt Q01650), inactive: -0.047.
Consider SLC35B3 (UniProt Q9H1N7), for which the log2 fold change was inactive: -0.026.
Same read-out and setting: in the case of SLC7A1 (UniProt P30825) it was inactive: -0.018; in that of SLC25A40 (UniProt Q8TBP6), inactive: -0.021.
On the same count and under the same terms, the figure for SLC2A3 (UniProt P11169) is inactive: -0.023.
On the same count and under the same terms, the figure for SLC26A6 (UniProt Q9BXS9) is inactive: -0.055; for SLC25A17 (UniProt O43808) it is inactive: 0.008; for SLC25A32 (UniProt Q9H2D1) it is inactive: 0.072.
As to SLC12A9 (UniProt Q9BXP2), the log2 fold change is inactive: -0.012.
For the target SLC1A5 (UniProt Q15758), the log2 fold change is inactive: -0.002.
As for SLC6A8 (UniProt P48029), the log2 fold change is inactive: -0.105.
Same read-out and setting: in the case of SLC3A2 isoform 3 (UniProt P08195) it was inactive: 0; in that of SLC25A1 (UniProt P53007), inactive: 0; in that of SLC20A1 (UniProt Q8WUM9), inactive: 0.02.
On the same count and under the same terms, the figure for SLC12A2 (UniProt P55011) is inactive: -0.03.
On the same count and under the same terms, the figure for SLC38A10 (UniProt Q9HBR0) is inactive: -0.036.
Turning to SLC5A3 (UniProt P53794), the log2 fold change was inactive: -0.004.
The same measure, in the same setting: the figure for SLC5A6 (UniProt Q9Y289) is inactive: -0.002; for SLC25A15 (UniProt Q9Y619) it is inactive: 0.04.
